Reference: article doi:10.1101/705459 (bioRxiv, 2019)
Read-outs that look alike come from different tables or passages of the source. Results are given in words; binding and its absence hold for the method and conditions named. Some results given as binding are weak or reduced against the parent protein; the word gives no strength.

Chains of the proteins cited; added tags and fusions are not shown. Lines headed by an entry give the natural chain unless they say otherwise; changes in a name come on top. Residues count along the entry.
CMG2 on EA.hy926 endothelial cells (human (endogenous in EA.hy926)) (P58335, residues 34-489): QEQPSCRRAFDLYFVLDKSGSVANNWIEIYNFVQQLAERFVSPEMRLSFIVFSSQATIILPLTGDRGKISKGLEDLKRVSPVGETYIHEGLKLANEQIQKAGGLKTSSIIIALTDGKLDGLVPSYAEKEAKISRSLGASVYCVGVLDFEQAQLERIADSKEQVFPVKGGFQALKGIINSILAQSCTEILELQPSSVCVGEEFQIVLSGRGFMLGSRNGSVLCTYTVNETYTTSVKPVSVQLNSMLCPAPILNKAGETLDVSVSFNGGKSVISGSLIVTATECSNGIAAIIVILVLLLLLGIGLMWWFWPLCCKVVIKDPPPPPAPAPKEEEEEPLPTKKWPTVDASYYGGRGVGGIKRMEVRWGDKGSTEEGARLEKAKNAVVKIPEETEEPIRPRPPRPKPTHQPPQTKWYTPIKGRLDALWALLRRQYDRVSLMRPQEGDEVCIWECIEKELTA

Columns and labels:
[1] = molecular target: CMG2-GST-biotin (human CMG2 vWA domain 40-217, [change], [change], GST fusion, biotin-labelled) (human) (UniProt P58335); test: BLI
[2] = molecular target: CMG2 on EA.hy926 endothelial cells (human (endogenous in EA.hy926)) (UniProt P58335); test: flow cytometry on cells
[3] = molecular target: CMG2 on EA.hy926 endothelial cells (human (endogenous in EA.hy926)) (UniProt P58335); test: flow cytometry on cells; remark: listed apart in the source

Binder: PAIAIAVHSQDVSIP [Peptide S16 (canstatin-derived 15-mer)]
- binding [1]: no binding (condition: with 10 mM EDTA)

Binder: PAIAIAVHSQDVSIP (HiLite-488 on the N-terminus) [S16-488 (S16 conjugated at the N-terminus to HiLite-488)]
- binding [2]: binds
- binding [3]: binds
